Paper PMC7447793
Results are given in words; binding and its absence hold for the method and conditions named. Binding seen in cells or lysates may run through a third protein. Some entries that bind do so weakly or less than the wild type. Tags and fused reporters may be left off the sequences shown.

Biological target: T1, Flag-TIPE (tumor necrosis factor α-induced protein 8) (UniProt O95379)
T1 sequence: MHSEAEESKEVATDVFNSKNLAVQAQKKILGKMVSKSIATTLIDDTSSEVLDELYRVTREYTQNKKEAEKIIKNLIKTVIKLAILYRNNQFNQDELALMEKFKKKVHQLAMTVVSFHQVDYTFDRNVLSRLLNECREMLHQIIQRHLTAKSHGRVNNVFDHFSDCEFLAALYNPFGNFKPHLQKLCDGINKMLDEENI
Test: co-IP; HEK293T cells co-transfected with expression plasmids for Flag-TIPE and HA-MKK-3; whole-cell lysates analyzed by co-immunoprecipitation

B1: HA-MKK-3 (mitogen-activated protein kinase kinase 3) (protein, UniProt P46734 1-347)
chain: MESPASSQPASMPQSKGKSKRKKDLRISCMSKPPAPNPTPPRNLDSRTFITIGDRNFEVEADDLVTISELGRGAYGVVEKVRHAQSGTIMAVKRIRATVNSQEQKRLLMDLDINMRTVDCFYTVTFYGALFREGDVWICMELMDTSLDKFYRKVLDKNMTIPEDILGEIAVSIVRALEHLHSKLSVIHRDVKPSNVLINKEGHVKMCDFGISGYLVDSVAKTMDAGCKPYMAPERINPELNQKGYNVKSDVWSLGITMIEMAILRFPYESWGTPFQQLKQVVEEPSPQLPADRFSPEFVDFTAQCLRKNPAERMSYLELMEHPFFTLHKTKKTDIAAFVKEILGEDS
  binding: binds
